Measurements: paper PMC12930632, “Free fatty acid receptor 2 allosterism is defined by cellular context” (Cell Communication and Signaling : CCS, 2026)
These are yes or no findings as the source states them, for the method shown. In cells and extracts the contact can be indirect. Some binding calls cover weakened binding; strength is not graded here.

Protein sequences, listed by entry. Tags and fused reporters are not part of them.
UniProt P32121: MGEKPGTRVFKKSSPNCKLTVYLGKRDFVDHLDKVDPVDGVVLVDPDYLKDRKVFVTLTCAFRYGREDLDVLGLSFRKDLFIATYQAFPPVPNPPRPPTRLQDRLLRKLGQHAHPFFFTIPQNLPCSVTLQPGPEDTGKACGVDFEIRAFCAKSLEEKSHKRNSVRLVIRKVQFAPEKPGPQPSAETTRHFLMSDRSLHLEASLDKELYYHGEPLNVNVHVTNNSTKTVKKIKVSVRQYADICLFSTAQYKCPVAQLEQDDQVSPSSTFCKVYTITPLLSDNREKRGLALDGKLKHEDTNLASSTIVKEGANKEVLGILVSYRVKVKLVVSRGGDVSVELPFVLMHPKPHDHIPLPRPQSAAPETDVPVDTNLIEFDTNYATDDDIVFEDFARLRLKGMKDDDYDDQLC

Assays:
FFA2R-SmBiT (human) [1] = target: T1, FFA2R-SmBiT (human) (UniProt O15552); assay: split reporter; live HEK293T cells co-transfected with FFA2R-SmBiT and β-arrestin-LgBiT; HBSS, 37 °C, Nano-Glo substrate; luminescence after propionate (concentration series), with or without Cmp58
T1 sequence: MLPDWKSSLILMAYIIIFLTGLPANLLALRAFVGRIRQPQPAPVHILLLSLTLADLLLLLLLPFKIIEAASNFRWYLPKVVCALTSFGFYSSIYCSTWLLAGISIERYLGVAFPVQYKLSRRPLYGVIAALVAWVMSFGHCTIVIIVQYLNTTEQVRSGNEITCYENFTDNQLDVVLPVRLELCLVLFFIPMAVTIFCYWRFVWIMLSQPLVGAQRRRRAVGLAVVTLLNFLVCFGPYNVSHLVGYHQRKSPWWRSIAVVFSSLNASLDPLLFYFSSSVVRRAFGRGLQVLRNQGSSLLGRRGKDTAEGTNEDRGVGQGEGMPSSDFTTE

FFA2R-SmBiT (human) [2] = target: T1, FFA2R-SmBiT (human); assay: condition: only with Cmp58, AZ1729 or their combination, without propionate; split reporter; live HEK293T cells co-transfected with FFA2R-SmBiT and β-arrestin-LgBiT; HBSS, 37 °C, Nano-Glo substrate; Cmp58, AZ1729 or their combination alone, no propionate

In the case of “β-arrestin-LgBiT (β-arrestin2) (from UniProt P32121 1-409)”, the binding (FFA2R-SmBiT (human) [1]) is reported as “binds” and the binding (FFA2R-SmBiT (human) [2]) is reported as “no binding”.
